Assay results

By UniProt entry, the sequences of proteins in these tests, tags left out.
UniProt Q07869, whole entry, target on record: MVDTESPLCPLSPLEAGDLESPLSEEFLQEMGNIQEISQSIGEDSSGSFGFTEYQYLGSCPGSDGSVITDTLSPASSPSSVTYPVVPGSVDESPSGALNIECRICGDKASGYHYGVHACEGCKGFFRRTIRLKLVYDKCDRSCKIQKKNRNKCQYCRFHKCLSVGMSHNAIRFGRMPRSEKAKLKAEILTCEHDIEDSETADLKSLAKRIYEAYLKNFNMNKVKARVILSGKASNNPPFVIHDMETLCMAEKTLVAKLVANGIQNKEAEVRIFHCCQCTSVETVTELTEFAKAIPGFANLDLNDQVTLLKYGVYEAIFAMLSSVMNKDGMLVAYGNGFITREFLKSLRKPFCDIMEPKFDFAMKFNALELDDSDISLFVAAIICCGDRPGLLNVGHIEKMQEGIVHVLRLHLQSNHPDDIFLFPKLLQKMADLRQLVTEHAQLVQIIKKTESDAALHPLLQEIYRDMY

Source: PubChem BioAssay AID651778 (NCATS, 2012).

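A 6-hour chemiluminescent complementation readout of activation of the human PPARalpha signaling pathway. Compounds were run as a dilution series of about 25 concentrations, and potency was fitted from that curve. The number is the potency, the concentration giving half of the fitted maximal effect; lower values mean a more potent agonist. Calls come from the fitted concentration-response curve; inconclusive marks small, poorly fitted or top-dose-only effects.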

Values are in nM. All entries here are filed as inconclusive. Only part of the assay is shown, chiefly results filed as inconclusive. Potencies fitted to partial, single-point or poorly fitting curves are rough.

structure,Potency (nM),remark
Oc1c(Cl)cc(Cl)c(Cl)c1Cl,44668,"activator, partial curve"
CCc1cnc(C2=NC(C)(C(C)C)C(=O)N2)c(C(=O)O)c1 (centres undefined),39810,"activator, single point"
Cc1cc(C(C)(C)CC(C)(C)C)ccc1OCCOCC[N+](C)(C)Cc1ccccc1,25118,"activator, single point"
O=S1OCC2C(CO1)C1(Cl)C(Cl)=C(Cl)C2(Cl)C1(Cl)Cl (centres undefined),44668,"activator, single point"
CC(C)(C)C1CCC(O)CC1 (centres undefined),1122,"activator, single point"
OC(c1ccc(Cl)cc1)(c1ccc(Cl)cc1)C(Cl)(Cl)Cl,31622,"activator, partial curve"
Clc1ccc(C(c2ccccc2Cl)C(Cl)(Cl)Cl)cc1 (centres undefined),50118,"activator, single point"
Oc1c(Cl)c(Cl)cc(Cl)c1Cl,44668,"activator, single point"
O=C(O)c1ccccc1Nc1cccc(C(F)(F)F)c1,28183,"activator, partial curve"
ClC1=C(Cl)C2(Cl)C3C4C=CC(C4)C3C1(Cl)C2(Cl)Cl (centres undefined),44668,"activator, partial curve"

The first 2 entries again:

structure,Potency (nM),remark
Oc1c(Cl)cc(Cl)c(Cl)c1Cl,44668,"activator, partial curve"
CCc1cnc(C2=NC(C)(C(C)C)C(=O)N2)c(C(=O)O)c1 (centres undefined),39810,"activator, single point"